Reference: article PMC8372404 (Frontiers in Neuroscience, 2021)

Target: [3H]-LCGA-17 binding site in rat brain membranes (putative α2δ)
Test: [3H]-LCGA-17 radioligand competition binding assay

| SMILES | IC50 (competition of [3H]-LCGA-17 binding to rat brain (cortical) membranes, text and Figure 3) | IC50 (competition of [3H]-LCGA-17 (16 nM) binding, rat brain membranes, Table S1) |
| --- | --- | --- |
| NCCCC(=O)O [GABA, γ-aminobutyric acid] | > 100 µM |  |
| O=C(CCCN1CCC2(CC1)C(=O)NCN2c1ccccc1)c1ccc(F)cc1 [Spiperone] |  | > 100 µM |
